Test results reported in US10702527B2, “Combination therapy of transcription inhibitors and kinase inhibitors” (Dana-Farber Cancer Institute, Inc., priority 2015, dated 2020).
At least one structure is not confirmed: it was looked up by name or label, or the drawing left a doubt.

System: RT112 bladder carcinoma cells (FGFR3-dependent)
Experiment: Colony formation assay in RT112 cells
Assay type: cell-based, human
Settings: 4 weeks, crystal violet staining, relative to control
Excerpt: Media (and drug) were replaced weekly.

SMILES: CCCS(=O)(=O)Nc1ccc(F)c(C(=O)c2c[nH]c3ncc(-c4ccc(Cl)cc4)cc23)c1F [vemurafenib]
- colony formation: does not show effectiveness
